According to article PMC10784588:
These are yes or no findings as the source states them, for the method shown. In cells and extracts the contact can be indirect. Some entries that bind do so weakly or less than the wild type. Tags and fused reporters may be left off the sequences shown.

Protein sequences, listed by entry. Tags and fused reporters are not part of them.
UniProt Q4G0F5: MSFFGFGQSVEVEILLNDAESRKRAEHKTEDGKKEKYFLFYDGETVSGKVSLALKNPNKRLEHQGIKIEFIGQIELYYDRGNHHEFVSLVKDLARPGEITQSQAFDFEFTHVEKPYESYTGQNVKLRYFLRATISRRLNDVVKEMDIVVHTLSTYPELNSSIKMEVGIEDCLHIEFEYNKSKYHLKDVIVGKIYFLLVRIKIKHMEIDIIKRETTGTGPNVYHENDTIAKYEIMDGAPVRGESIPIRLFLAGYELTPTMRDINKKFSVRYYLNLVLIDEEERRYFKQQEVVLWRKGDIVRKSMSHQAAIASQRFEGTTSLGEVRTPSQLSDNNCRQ

Target: T1, OXR1-GFP (human Oxidation Resistance 1, Origene tagged ORF clone) (human) (UniProt Q8N573)
T1 sequence: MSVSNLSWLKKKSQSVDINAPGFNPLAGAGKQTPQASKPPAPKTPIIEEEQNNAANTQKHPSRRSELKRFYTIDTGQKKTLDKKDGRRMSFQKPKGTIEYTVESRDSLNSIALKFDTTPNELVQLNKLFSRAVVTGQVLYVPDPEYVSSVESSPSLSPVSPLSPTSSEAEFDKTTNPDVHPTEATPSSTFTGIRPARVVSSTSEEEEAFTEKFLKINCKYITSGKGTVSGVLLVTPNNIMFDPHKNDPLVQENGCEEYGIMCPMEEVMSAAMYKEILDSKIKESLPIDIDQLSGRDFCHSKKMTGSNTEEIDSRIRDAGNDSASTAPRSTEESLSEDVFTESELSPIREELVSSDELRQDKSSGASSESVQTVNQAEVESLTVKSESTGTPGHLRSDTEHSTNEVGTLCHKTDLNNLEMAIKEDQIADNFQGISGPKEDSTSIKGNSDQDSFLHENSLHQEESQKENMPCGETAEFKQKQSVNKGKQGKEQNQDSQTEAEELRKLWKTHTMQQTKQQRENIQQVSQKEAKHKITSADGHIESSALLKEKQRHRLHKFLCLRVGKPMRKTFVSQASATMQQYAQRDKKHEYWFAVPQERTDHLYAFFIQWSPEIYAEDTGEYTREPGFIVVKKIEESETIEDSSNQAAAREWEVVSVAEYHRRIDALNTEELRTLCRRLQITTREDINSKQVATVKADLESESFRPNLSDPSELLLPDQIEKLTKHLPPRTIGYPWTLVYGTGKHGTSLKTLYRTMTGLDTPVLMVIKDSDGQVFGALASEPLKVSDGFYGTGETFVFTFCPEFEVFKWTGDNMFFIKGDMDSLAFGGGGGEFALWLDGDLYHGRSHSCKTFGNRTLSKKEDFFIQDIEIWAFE
Assay: co-IP; lysates (MPER lysis buffer with protease inhibitors, sonicated) of human fibroblasts transduced with lentivirus for OXR1-GFP or GFP alone; pre-cleared with protein G beads, anti-GFP antibody (sc-9996) overnight at 4 C, protein G beads 4 h at 4 C, 3 washes with lysis buffer; western blot

Row | binding | Substance
1 | binds | VPS26B (from UniProt Q4G0F5 1-336)
2 | binds | VPS26A (from UniProt O75436 1-327)
